Source: patent publication US20210163555A1
These are yes or no findings as the source states them, for the method shown. In cells and extracts the contact can be indirect. Some entries that bind do so weakly or less than the wild type.

Chains of the proteins cited; added tags and fusions are not shown. Lines headed by an entry give the natural chain unless they say otherwise; changes in a name come on top. A line that says so, or that is headed by a name, gives the form on record, which may keep a tag or linker. Residues count along the entry.
HA-tagged wild-type Ube3a (Q05086, residues 11-875): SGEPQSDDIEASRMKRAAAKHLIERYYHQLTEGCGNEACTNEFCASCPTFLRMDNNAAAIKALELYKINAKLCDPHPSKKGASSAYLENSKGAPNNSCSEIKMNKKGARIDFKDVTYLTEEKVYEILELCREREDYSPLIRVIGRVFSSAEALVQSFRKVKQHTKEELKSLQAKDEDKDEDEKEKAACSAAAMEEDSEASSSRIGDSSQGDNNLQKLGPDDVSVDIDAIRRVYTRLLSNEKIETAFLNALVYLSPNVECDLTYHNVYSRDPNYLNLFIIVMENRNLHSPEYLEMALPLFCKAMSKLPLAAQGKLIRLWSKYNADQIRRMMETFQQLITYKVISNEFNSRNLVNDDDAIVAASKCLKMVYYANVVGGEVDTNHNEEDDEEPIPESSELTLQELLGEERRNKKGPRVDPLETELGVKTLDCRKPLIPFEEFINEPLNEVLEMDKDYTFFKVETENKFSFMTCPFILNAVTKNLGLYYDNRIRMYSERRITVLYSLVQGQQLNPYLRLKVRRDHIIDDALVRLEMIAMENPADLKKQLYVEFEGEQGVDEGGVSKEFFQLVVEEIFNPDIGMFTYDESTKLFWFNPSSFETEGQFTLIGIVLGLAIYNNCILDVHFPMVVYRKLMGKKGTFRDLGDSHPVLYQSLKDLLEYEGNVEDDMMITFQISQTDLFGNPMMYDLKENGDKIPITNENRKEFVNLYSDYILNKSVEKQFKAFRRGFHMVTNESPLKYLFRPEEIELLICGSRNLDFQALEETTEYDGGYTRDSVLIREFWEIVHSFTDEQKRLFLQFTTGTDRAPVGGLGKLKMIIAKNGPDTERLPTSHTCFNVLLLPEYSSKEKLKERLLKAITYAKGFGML
HA-tagged Ube3a-C833A (Q05086, form named): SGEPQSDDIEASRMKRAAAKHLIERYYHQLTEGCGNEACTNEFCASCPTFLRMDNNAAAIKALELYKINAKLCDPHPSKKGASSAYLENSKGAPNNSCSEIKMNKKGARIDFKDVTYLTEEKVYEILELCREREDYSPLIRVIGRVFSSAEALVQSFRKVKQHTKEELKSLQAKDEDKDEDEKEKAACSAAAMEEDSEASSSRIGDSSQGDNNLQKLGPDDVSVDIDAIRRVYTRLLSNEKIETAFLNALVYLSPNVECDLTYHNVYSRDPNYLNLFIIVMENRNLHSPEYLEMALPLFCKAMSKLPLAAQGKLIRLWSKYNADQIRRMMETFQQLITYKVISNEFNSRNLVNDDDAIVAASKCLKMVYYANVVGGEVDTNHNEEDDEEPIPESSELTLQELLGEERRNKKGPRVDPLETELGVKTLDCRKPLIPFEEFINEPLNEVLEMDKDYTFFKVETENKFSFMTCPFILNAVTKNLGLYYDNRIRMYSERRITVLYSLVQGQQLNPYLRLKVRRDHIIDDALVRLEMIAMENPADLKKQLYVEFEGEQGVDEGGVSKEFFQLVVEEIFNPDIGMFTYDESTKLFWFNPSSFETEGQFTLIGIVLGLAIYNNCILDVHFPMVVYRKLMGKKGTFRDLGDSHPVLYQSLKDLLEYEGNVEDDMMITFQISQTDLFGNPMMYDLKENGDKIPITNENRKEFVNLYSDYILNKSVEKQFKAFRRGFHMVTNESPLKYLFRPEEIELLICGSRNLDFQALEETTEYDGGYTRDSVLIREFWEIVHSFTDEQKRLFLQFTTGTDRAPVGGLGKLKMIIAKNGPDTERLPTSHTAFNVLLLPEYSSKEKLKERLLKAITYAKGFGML
UniProt Q9CQ22, residues 2-161: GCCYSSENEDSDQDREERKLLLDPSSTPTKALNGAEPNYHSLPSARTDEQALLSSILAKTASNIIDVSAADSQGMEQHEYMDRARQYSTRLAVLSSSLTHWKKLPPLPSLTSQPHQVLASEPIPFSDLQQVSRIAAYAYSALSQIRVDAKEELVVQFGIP
UniProt Q99K70, residues 2-398: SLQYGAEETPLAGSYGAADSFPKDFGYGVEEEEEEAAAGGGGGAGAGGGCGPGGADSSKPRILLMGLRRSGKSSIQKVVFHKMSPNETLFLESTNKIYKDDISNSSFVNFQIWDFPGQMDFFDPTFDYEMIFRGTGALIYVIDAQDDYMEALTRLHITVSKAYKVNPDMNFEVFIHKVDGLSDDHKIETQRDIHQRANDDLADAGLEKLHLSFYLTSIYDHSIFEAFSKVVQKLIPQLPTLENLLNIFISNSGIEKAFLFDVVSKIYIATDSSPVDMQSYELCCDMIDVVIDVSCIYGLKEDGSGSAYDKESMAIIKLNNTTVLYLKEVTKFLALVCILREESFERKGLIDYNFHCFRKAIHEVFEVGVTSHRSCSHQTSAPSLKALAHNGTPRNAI
UniProt Q80X95: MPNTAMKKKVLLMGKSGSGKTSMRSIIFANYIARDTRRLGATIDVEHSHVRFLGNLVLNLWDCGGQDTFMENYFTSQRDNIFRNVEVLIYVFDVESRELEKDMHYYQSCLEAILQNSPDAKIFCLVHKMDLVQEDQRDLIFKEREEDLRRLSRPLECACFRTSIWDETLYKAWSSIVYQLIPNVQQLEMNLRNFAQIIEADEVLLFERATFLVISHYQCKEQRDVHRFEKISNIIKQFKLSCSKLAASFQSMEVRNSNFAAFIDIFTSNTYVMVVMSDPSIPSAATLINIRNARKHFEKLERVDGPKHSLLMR
UniProt Q9JHS3: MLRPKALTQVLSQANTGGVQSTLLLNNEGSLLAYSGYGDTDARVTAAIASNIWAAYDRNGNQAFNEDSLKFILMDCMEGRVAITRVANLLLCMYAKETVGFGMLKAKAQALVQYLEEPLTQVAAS
UniProt O88653: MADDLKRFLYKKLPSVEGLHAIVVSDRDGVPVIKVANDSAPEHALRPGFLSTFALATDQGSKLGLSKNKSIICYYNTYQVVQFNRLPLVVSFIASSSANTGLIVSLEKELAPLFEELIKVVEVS
UniProt Q5R766: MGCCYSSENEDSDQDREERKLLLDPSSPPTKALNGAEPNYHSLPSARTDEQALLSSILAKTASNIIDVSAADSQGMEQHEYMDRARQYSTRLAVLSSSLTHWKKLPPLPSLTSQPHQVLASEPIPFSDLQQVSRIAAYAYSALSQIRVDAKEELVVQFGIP

Legend:
[1] = biological target: HA-tagged wild-type Ube3a (UniProt Q05086); assay: co-immunoprecipitation with anti-Flag, COS-1 cells transfected with Ube3a and Flag-p18
HA-tagged Ube3a-C833A = HA-tagged Ube3a-C833A (UniProt Q05086); assay: co-immunoprecipitation with anti-Flag, transfected COS-1 cells
[2] = biological target: HA-tagged wild-type Ube3a (UniProt Q05086); assay: co-immunoprecipitation with anti-Flag, transfected COS-1 cells (FIG. 1C)
[3] = biological target: p18 (endogenous, mouse hippocampal neurons / hippocampus) (mouse) (UniProt Q9CQ22); assay: co-immunoprecipitation with anti-RagA, lysates from mouse hippocampi (FIG. 2)
[4] = biological target: RagC (endogenous, mouse hippocampus) (mouse) (UniProt Q99K70); assay: as above
[5] = biological target: p18 (endogenous, mouse hippocampal neurons / hippocampus) (mouse) (UniProt Q9CQ22); assay: co-immunoprecipitation with anti-RagA, mouse hippocampal lysates
[6] = biological target: RagC (endogenous, mouse hippocampus) (mouse) (UniProt Q99K70); assay: as above
[7] = biological target: RagA (endogenous, mouse hippocampus) (mouse) (UniProt Q80X95); assay: co-immunoprecipitation with anti-RagA, hippocampal homogenates of WT and AS mice
[8] = biological target: p14 (endogenous, mouse) (mouse) (UniProt Q9JHS3); assay: co-immunoprecipitation with anti-p18, lysates of cultured hippocampal neurons (FIG. 2)
[9] = biological target: MP1 (endogenous, mouse) (mouse) (UniProt O88653); assay: as above
[10] = biological target: RagA (endogenous, mouse hippocampus) (mouse) (UniProt Q80X95); assay: co-immunoprecipitation with anti-RagA, hippocampal homogenates of WT and AS mice (FIG. 4G)
[11] = biological target: p14 (endogenous, mouse) (mouse) (UniProt Q9JHS3); assay: co-immunoprecipitation with anti-p18, lysates of cultured hippocampal neurons
[12] = biological target: MP1 (endogenous, mouse) (mouse) (UniProt O88653); assay: as above
[13] = biological target: T1, Ube3a (endogenous, mouse hippocampal neurons) (mouse) (UniProt O08759); assay: co-immunoprecipitation with anti-p18, cultured hippocampal neurons (FIG. 3B)
T1 sequence (looked up): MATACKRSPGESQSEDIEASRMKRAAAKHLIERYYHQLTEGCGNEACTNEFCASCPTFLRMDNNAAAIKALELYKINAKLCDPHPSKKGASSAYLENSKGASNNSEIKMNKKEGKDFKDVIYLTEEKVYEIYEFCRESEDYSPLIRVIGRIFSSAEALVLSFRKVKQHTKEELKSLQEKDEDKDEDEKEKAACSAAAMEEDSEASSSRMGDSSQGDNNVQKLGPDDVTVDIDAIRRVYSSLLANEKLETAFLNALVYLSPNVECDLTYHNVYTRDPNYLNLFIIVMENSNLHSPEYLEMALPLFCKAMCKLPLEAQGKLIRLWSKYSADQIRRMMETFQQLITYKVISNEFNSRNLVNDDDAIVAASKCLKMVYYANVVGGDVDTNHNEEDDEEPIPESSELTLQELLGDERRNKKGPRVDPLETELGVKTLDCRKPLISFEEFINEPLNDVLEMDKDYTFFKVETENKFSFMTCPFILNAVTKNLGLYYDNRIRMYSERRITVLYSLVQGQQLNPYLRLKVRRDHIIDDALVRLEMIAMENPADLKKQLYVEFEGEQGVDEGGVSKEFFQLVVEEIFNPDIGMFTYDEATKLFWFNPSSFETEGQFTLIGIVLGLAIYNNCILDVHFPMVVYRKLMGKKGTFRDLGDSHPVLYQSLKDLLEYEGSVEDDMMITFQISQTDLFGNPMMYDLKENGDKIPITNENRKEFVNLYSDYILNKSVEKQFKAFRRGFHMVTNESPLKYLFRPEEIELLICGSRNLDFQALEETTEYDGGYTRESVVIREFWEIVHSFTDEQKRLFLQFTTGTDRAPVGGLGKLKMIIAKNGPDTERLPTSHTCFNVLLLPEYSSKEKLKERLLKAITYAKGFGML

[14] = biological target: T1, Ube3a (endogenous, mouse hippocampal neurons) (mouse); assay: co-immunoprecipitation with anti-p18, cultured hippocampal neurons

Measured: binding

Flag-p18 (from UniProt Q5R766 1-161)
binds: [1] | HA-tagged Ube3a-C833A | [2]

RagA (endogenous, mouse hippocampus) (from UniProt Q80X95 1-313) (enzyme)
binds: [3] | [4] | [5] | [6]

p18 (endogenous, mouse hippocampal neurons / hippocampus) (from UniProt Q9CQ22 2-161)
binds: [7] | [8] | [9] | [10] | [11] | [12] | [13] | [14]
